Results published in the supplement of paper PMC12823440, “Inhibitors supercharge kinase turnover through native proteolytic circuits” (Nature, 2025).
This is one part of the list. Hit calls seldom repeat between salt and free forms of one compound.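 Kinases were expressed as nanoluciferase fusions in K562 cells and luminescence was read every 4 h between 2 and 18 h as percent of control, DMSO set to 100% and a positive control to 0%. A time point counts as decreased when the signal drops significantly (2 sigma). The hit call is the authors' own, does not follow from the count of time points alone, and its rule is not shown.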

Protein sequences, listed by entry. Tags and fused reporters are not part of them. Lines headed by an entry give the natural chain unless they say otherwise; changes in a name come on top.
UniProt O75460: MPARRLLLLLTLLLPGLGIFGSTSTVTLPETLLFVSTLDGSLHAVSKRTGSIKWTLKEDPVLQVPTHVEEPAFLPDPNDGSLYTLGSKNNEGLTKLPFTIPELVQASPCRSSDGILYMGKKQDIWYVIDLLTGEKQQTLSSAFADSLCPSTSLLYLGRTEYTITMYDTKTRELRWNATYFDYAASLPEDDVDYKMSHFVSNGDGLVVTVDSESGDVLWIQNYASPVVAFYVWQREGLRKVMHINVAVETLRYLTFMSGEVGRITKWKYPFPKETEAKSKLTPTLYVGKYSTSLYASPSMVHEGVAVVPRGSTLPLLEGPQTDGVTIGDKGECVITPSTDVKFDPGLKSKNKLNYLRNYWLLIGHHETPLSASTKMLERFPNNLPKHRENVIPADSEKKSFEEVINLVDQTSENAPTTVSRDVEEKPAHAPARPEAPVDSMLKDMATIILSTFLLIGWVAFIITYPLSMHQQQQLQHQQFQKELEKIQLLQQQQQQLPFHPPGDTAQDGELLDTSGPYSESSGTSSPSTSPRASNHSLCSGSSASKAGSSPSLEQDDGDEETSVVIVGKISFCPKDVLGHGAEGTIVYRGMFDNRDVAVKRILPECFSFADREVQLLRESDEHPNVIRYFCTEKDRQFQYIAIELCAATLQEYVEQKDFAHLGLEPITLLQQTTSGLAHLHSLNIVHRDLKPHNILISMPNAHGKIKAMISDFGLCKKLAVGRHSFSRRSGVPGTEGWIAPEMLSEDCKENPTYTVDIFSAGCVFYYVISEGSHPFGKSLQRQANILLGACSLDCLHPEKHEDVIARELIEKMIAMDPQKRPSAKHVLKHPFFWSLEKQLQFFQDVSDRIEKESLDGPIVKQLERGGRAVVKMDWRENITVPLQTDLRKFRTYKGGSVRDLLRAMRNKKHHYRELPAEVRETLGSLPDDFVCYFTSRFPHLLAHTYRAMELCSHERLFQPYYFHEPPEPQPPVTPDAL
UniProt P11362, whole entry, looked up: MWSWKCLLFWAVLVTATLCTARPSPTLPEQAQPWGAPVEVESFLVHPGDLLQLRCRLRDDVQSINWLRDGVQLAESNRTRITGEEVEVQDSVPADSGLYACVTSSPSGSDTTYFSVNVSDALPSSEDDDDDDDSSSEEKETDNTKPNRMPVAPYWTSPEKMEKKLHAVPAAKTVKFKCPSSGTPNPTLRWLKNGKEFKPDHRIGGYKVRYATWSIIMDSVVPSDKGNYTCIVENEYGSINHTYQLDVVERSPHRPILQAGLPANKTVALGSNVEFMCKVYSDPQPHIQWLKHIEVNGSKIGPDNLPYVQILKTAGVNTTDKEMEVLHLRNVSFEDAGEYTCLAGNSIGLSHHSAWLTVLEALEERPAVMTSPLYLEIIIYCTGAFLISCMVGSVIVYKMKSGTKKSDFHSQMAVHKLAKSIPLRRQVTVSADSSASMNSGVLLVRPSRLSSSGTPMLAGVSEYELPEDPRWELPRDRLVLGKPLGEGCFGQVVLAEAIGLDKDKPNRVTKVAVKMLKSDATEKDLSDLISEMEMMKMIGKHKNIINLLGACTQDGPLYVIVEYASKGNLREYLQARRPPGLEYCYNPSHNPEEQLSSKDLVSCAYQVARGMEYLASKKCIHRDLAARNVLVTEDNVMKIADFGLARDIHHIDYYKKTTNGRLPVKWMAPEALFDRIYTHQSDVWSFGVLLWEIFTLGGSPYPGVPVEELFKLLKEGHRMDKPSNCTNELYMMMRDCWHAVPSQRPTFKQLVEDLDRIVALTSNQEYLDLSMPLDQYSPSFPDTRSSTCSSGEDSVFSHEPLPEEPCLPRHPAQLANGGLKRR
UniProt P21802, whole entry, looked up: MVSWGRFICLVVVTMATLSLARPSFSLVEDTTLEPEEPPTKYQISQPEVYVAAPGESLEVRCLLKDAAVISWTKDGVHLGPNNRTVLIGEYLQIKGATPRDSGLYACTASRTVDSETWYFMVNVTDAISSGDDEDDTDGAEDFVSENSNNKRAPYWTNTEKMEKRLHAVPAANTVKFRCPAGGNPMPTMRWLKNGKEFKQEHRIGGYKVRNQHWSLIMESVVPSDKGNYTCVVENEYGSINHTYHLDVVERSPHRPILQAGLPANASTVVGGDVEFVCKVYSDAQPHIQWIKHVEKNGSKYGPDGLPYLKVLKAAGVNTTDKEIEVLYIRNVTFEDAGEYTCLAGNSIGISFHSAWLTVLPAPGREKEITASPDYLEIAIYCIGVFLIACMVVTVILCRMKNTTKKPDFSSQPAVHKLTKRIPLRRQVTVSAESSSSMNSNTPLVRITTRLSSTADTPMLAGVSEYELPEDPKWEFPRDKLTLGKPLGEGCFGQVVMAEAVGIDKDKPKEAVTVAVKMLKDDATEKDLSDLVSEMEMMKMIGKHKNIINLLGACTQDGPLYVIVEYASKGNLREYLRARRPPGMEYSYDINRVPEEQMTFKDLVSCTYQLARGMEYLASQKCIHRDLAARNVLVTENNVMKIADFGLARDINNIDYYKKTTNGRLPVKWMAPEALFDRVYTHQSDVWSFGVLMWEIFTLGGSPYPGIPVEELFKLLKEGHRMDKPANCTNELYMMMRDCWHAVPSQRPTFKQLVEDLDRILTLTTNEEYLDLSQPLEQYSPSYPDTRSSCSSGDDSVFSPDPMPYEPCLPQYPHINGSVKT
UniProt P22607, whole entry, looked up: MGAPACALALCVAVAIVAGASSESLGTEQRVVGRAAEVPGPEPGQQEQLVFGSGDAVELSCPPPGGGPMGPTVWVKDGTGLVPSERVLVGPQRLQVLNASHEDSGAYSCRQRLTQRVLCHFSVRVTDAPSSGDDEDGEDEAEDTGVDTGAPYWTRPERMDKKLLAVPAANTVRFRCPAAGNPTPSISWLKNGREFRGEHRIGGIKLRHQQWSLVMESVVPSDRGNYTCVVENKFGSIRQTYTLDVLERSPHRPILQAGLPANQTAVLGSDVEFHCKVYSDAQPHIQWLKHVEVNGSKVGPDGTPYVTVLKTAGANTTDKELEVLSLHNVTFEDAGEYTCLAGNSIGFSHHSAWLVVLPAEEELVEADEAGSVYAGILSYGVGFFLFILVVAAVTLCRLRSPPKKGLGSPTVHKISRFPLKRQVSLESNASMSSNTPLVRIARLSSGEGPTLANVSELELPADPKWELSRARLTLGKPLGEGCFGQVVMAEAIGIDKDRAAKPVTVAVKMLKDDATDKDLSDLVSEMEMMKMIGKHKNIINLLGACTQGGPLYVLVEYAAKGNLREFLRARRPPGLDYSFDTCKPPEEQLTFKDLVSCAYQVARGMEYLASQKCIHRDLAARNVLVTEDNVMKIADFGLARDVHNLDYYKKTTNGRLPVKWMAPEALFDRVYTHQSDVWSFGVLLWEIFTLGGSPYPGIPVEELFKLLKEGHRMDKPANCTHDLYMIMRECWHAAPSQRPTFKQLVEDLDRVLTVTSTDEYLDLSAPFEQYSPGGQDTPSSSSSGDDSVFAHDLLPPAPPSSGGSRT
UniProt P36888, whole entry: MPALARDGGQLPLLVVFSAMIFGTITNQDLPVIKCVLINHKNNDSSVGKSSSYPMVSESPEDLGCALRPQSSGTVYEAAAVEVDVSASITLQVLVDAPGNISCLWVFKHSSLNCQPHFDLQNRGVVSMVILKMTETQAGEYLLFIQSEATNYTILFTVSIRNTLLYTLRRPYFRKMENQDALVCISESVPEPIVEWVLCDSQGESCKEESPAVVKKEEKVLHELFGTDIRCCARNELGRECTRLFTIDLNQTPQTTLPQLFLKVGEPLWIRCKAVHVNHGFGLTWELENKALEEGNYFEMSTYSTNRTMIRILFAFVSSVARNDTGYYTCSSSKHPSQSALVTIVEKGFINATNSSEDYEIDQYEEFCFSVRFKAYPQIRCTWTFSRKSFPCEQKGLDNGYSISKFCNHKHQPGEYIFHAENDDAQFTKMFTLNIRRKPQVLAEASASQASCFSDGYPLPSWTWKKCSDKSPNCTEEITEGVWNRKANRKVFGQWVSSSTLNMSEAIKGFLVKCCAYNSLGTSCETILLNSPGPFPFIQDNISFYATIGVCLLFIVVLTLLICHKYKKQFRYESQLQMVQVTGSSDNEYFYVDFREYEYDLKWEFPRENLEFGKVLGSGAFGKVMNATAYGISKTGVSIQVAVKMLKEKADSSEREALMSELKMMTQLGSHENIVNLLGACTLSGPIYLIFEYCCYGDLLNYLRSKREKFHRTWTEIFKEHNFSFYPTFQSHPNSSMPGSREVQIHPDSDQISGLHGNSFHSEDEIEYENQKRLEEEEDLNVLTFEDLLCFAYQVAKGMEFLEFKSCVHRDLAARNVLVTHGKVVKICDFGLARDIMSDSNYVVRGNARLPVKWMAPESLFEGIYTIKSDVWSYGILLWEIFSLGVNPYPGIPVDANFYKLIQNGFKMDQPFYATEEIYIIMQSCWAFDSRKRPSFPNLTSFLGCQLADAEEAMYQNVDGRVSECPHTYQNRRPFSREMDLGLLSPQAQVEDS
UniProt P06241, whole entry, looked up: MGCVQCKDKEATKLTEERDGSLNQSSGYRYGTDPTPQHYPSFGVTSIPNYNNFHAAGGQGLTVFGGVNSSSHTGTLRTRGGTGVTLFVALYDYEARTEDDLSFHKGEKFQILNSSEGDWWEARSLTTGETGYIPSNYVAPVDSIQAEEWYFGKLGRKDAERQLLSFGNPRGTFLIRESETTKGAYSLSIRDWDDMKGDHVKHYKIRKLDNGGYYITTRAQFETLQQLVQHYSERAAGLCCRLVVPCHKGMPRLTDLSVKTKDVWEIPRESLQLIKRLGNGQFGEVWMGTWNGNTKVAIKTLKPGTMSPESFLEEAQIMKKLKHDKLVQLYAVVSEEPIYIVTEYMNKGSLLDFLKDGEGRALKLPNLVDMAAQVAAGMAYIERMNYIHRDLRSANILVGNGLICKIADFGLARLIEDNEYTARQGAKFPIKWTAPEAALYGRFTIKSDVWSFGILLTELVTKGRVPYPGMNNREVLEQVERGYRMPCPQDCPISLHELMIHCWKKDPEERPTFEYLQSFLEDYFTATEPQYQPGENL
UniProt P49840: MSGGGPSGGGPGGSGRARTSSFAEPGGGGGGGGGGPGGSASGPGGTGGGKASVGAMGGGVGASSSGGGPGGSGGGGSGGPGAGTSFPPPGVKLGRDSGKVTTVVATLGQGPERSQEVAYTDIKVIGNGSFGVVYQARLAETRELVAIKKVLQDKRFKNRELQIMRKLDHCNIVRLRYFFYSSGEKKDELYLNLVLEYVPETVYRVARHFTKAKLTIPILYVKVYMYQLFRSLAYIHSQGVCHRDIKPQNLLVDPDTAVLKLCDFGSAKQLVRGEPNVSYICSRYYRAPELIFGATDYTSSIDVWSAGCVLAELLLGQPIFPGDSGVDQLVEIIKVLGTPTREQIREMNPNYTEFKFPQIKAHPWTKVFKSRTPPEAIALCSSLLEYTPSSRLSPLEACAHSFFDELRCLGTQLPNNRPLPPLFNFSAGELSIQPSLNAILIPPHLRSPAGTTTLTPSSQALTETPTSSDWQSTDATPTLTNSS

Legend:
Test in all cases: kinase-Nluc reporter destabilization hit call (1 = scored as downregulated) (binary); higher = compound decreases kinase abundance
Conditions in all cases: K562; 2-18 h
ERN1 = ERN1 (UniProt O75460)
FGFR1 = FGFR1 (UniProt P11362)
FGFR2 = FGFR2 (UniProt P21802)
FGFR3 = FGFR3 (UniProt P22607)
FGR = FGR (UniProt P09769)
FLT3 = FLT3 (UniProt P36888)
FYN = FYN (UniProt P06241)
GSK3A = GSK3A (UniProt P49840)
HER2 = HER2 (UniProt P04626)
INSRR = INSRR (UniProt P14616)

Measured: kinase-Nluc reporter destabilization hit call

O=c1cc(-c2ccccc2)oc2cc(O[C@@H]3O[C@H](CO[C@@H]4O[C@H](CO)[C@@H](O)[C@H](O)[C@H]4O)[C@@H](O)[C@H](O)[C@H]3O)c(O)c(O)c12 [Oroxin B] (10 µM)
inactive: ERN1 = 0 | FGFR1 = 0 | FGFR2 = 0 | FGFR3 = 0 | FGR 0 | FLT3 = 0 | FYN 0 | GSK3A 0 | HER2 = 0 | INSRR 0

Cc1ccc(C(=O)NC2CC2)cc1-n1ncc(C(=O)c2cccc(C#N)c2)c1N [Acumapimod] (10 µM)
inactive: ERN1 = 0 | FGFR1 = 0 | FGFR2 = 0 | FGFR3 = 0 | FGR 0 | FLT3 = 0 | FYN 0 | GSK3A 0 | HER2 = 0 | INSRR 0

O=C1CC[C@H](NC(=O)Cc2ccccc2)C(=O)N1 [Antineoplaston A10] (10 µM)
inactive: ERN1 = 0 | FGFR1 = 0 | FGFR2 = 0 | FGFR3 = 0 | FGR 0 | FLT3 = 0 | FYN 0 | GSK3A 0 | HER2 = 0 | INSRR 0

COc1cc(-c2oc3cc(O)cc(O)c3c(=O)c2O)ccc1O [Isorhamnetin] (10 µM)
inactive: ERN1 = 0 | FGFR1 = 0 | FGFR2 = 0 | FGFR3 = 0 | FGR 0 | FLT3 = 0 | FYN 0 | GSK3A 0 | HER2 = 0 | INSRR 0
